# Results from patent publication US20200392203A1 (YEDA RESEARCH AND DEVELOPMENT, published 2020).
# No constants are given. Whether binding was seen depends on the method and setting. In cells and extracts the contact can be indirect. Some entries that bind do so weakly or less than the wild type.
# B1: soluble apical domain (sAD) of Neotoma albigula (White-throated woodrat) TfR1 (receptor)
# chain: GSKIQVKCSAPNSVTITNASGGLYLVEYPEGYVAYSKATEVTGKLVHANFGTKKDFEDLDYAVNGSIVIVRAGKITIAEKVANAQSFNAIGVLIYKDRTKYPISRADEPLQGHSGLPSIPVQTISREAAEKLFQNMERDCPRSWNTDSSCKLELLQNRNVKLTVNNCLKE
# Biological target: GP1MACV (GP1 domain of Machupo virus, co-expressed with sAD for crystallography) (Machupo virus (MACV)) (UniProt Q6IUF7)
# Assay: co-expression, co-purification and crystal structure at 2.7 Å
binder,measurement,value
B1,binding,binds
